Results taken from patent US20160237067A1, “SUBSTITUTED PHENYLALANINE DERIVATIVES” (BAYER PHARMA AKTIENGESELLSCHAFT, priority 2013, published 2016).
Structures can show the parent of a compound that is named as a salt. At least one compound was matched to its structure with a doubt left.

Test system: human and animal plasma
Experiment: Determination of anticoagulatory activity: activated partial thromboplastin time (aPTT) in plasma
Format: biochemical
Conditions: C.K. Prest kit, 37° C., 3 minutes incubation, plasma species of Table B not stated
Description: The anticoagulatory activity of the test substances is determined in vitro in human and animal plasma (for example mouse, rat, rabbit, pig and dog plasma). To this end, blood is drawn off in a mixing ratio of sodium citrate/blood of 1:9 using a 0.11 molar sodium citrate solution as receiver. Immediately after the blood has been drawn off, it is mixed thoroughly and centrifuged at about 4000 g for 15 minutes. The supernatant is pipetted off.
The activated partial thromboplastin time (aPTT) is determined in the presence of varying concentrations of test substance or the corresponding solvent using a commercial test kit (C.K. Prest from Diagnostica Stago). The test compounds are incubated with the plasma and the PTT reagent (cephalin, kaolin) at 37° C. for 3 minutes. Coagulation is then started by addition of a 25 mM aqueous calcium chloride solution, and the time when coagulation occurs is determined. The concentration of test substance which brings about a 1.5-fold extension of the aPTT is determined Activity data from this test are listed in Table B below: […]

| Compound | aPTT (concentration of test substance which brings about a 1.5-fold extension of the aPTT) |
| --- | --- |
| CNC(=O)c1ccc(C)c(-c2ccc(C[C@H](NC(=O)[C@H]3CC[C@H](CN)CC3)C(=O)Nc3ccc(-c4nnc(C(F)(F)C(F)(F)C(=O)O)[nH]4)cc3)cc2)c1 [Example 41, 3-{5-[4-({(2S)-2-({[trans-4-(Aminomethyl)cyclohexyl]carbonyl}amino)-3-[2′-methyl-5′-(methylcarbamoyl)biphenyl-4-yl]propanoyl}amino)phenyl]-4H-1,2,4-triazol-3-yl}-2,2,3,3-tetrafluoropropanoic acid hydrochloride] | 0.31 µmol/L |
| Cc1cc(C)c(-c2ccc(C[C@H](NC(=O)[C@H]3CC[C@H](CN)CC3)C(=O)Nc3ccc(-c4nn[nH]n4)cc3)cc2)cc1C(=O)N(C)C [Example 39, 4′-[(2S)-2-({[trans-4-(Aminomethyl)cyclohexyl]carbonyl}amino)-3-oxo-3-{[4-(2H-tetrazol-5-yl)phenyl]amino}propyl]-N,N,4,6-tetramethylbiphenyl-3-carboxamide hydrochloride] | 0.17 µmol/L |
